Test results as given in PubChem BioAssay AID2685 (National Center for Advancing Translational Sciences (NCATS), 2010).
Hit rate of the full screen: of about 320,000 compounds, about 2,100 (0.66%) were called active. The shares of active, inactive and inconclusive entries below differ from those in the screen. The call rests on the fitted dose curve; in most records, active means well fitted inhibition curve with a large enough effect in the signal ratio, with a control signal flat (not every such curve was filed as active); inconclusive means small, poorly fitted or top-dose-only effect, or effect the other way, or a change in a side signal; inactive means flat fitted curve, though single readings scatter; the % refers to the signal ratio. Potencies of inconclusive entries are doubtful fits and often do not repeat.

Experiment: qHTS Assay for Lipid Storage Modulators in Drosophila S3 Cells
Conditions: BODIPY lipid droplet fluorescence, 18-24 h, cells fed with added oleic acid; lipid storage change, negative = inhibition: at 46.1 µM (top of the series) unless noted
Method in brief: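 Drosophila S3 cells loaded with oleic acid (400 uM, as added) and compounds at several concentrations; lipid droplets imaged by 488-nm laser-scanning cytometry, 500–530 nm intensity and object ratio to cell channel. Percent activity normalized to 20 uM Triacsin C.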
On the % scale 0 is the no-effect control and ±100 the full control effect; potency means the concentration at half of the fitted maximal effect.

Potency, inconclusive:
CCOC(=O)c1c(NC(=O)CSc2ncnc3ccccc23)sc(C)c1C 1.16 µM [activator, single point]
Cc1ccnc(N/C=C(/NC(=O)c2ccccc2)C(=O)N/N=C\c2ccc(F)cc2)n1 29.1 µM [activator, single point]
O=C(Cc1ccccc1)Nc1nonc1NC(=O)c1ccccc1 0.116 µM [falling, full curve, poor fit]
Cc1cccc(NS(=O)(=O)c2ccc3c(c2)CCC(=O)N3)c1 0.13 µM [activator, full curve, poor fit]
O=C(Nc1cccc(C(=O)O)c1)Nc1ccc2c(c1)OCO2 29.1 µM [activator, single point]
CCCCNCc1ccc(OCc2ccc(Cl)nc2)c(OC)c1 0.164 µM [falling, full curve, poor fit]
CC(c1ccccc1)N1CC(C(=O)Nc2nccs2)CC1=O (stereo not given) 6.51 µM [activator, partial curve]
CC(C)(C)c1nc(S(=O)(=O)c2ccc(Cl)cc2)c(N2CCOCC2)o1 29.1 µM [falling, single point]

Lipid storage change, negative = inhibition, inconclusive:
CS(=O)(=O)n1nc(C(=O)N2CCOCC2)nc1N 2.22%
Cc1cccc(CN2C(=O)c3ccccc3Sc3ccc(C(=O)NCCN4CCOCC4)cc32)c1 67.6%
CCOC(=O)N1CCN(C(=O)c2ccc3c(=O)n(CCC4=CCCCC4)c(=S)[nH]c3c2)CC1 -22.4%
CN(C)c1ccc(/C=[N+](\[O-])C2N(c3ccccc3)C(=S)SC2(C)C)cc1 (stereo not given) -24.4%
CCc1cccc(C)c1NC(=O)c1ccc(CN2CCc3ccccc3C2)cc1 31.8%
CN(C)c1ccc(NC(=O)c2ccc3nc[nH]c3c2)cc1 5.9%
O=C(Cc1ccccc1)Nn1c(-c2ccccc2)nc2ccccc2c1=O 61.3%
CC(C)CC(=O)NC(=S)NNC(=O)c1ccc([N+](=O)[O-])cc1 -39.7%
COc1ccc(S(=O)(=O)NCC2CCCN(C(=O)CCC(F)(F)F)C2)cc1 (stereo not given) 36.2%
COc1ccc(C(=O)C(c2ccccc2)N2CCOCC2)cc1 (stereo not given) 28.2%
O=C(Nc1cc(F)c(Br)cc1F)c1ccc(Cl)cc1 -4%
O=C(O)c1ccc(N2C(=O)c3ccc(C(=O)c4cccc([N+](=O)[O-])c4)cc3C2=O)cc1 -8.28%

Two records picked at random from those above:
Lipid storage change, negative = inhibition, inconclusive:
O=C(Cc1ccccc1)Nn1c(-c2ccccc2)nc2ccccc2c1=O 61.3%
CS(=O)(=O)n1nc(C(=O)N2CCOCC2)nc1N 2.22%
